The other results are listed elsewhere or left out.
B1: il10ra_site1_normal_mot_HHH_b1_08477_000000091_0001_40_57_H_._HHH_b2_05084_0001_0000800035_0000001_0 (protein)
chain: SSSSDIAEETARFLLEMAERLIEQGNPEYARQALRFALRLARDAGNPELEEEIQKLLEELGSSSS
B2: il10ra_site1_normal_mot_HHH_b1_02397_af2_000000085_0001_39_57_H_._HHH_b2_05327_0001_0000500035_0000002_0 (protein)
chain: SSSSSEEEEELERLLEEIEEAVRRGDPELFARLAQELLRLAFRLSDQEVLQRLHRLIKEATSSSS
B3: il10ra_site1_normal_mot_HHH_b2_00730_000000084_0001_1_16_H_._HHH_b1_03899_0001_0000200017_0000001_0 (protein)
chain: SSSSDNAEQIKRAFEQSFERALEAGDEEYLRLLLHFLRALAEDLNDPELRELVEELEELLRSSSS
B4: il10ra_site1_normal_mot_HHH_b1_02062_000000185_0001_1_20_H_._HHH_b1_07000_0001_0000400028_0000001_0_af2pred_0001 (protein)
chain: SSSSDRHEVLRLSREVNKLYSDGDPEEAQKLVEEALELAREEGNLILLYILESLERRIERSSSSS
B5: il10ra_site1_sap_17_mot_HHH_b1_05370_000000138_0001_1_16_H_._HHH_b1_03156_0001_0000500049_0000001_0_0001 (protein)
chain: SSSSSESQELYRLSREAMELLREGNPEEAQKVVEEAIELAEELNNPAFLYNLRHVLRAIRSSSSS
B6: il10ra_site1_normal_mot_HHH_b1_02997_000000220_0001_39_52_H_._HHH_b2_02758_0001_0000200017_0000001_0_af2pred_0001 (protein)
chain: SSSSSSQEEVLELIREAWEIDDLEEAREVLEEALELAKELGDEQLRELVERLLRQLELLSSSSSS
B7: il10ra_site1_sap_11_mot_HHH_b2_06497_000000202_0001_1_20_H_._HHH_b1_07730_0001_0000300024_0000001_0_0001 (protein)
chain: SSSSDMYEEVKRLIEEIVRLAREGDEERAEELLEELEELAREHNSPVIEFVIELLRRDLENSSSS
B8: il10ra_site1_sap_13_mot_HHH_b2_04680_000000215_0001_1_16_H_._HHH_b2_04522_af2_0001_0000600020_0000002_0_0001_af2pred_0001 (protein)
chain: SSSSSSAEKEASEVYVKAARALQEGDEEEAKELLRQLEEIAEEGNSEKAKLSVKNLRALLSSSSS
B9: il10ra_site1_normal_mot_HHH_b1_00999_000000080_0001_41_55_H_._HHH_b1_02251_0001_0000300042_0000002_0 (protein)
chain: SSSSDEEEERIEELLKEVEELRKEGNEEEAARLLQEAVRLAIELNDEELLREIWELAKKIGSSSS
B10: il10ra_site1_sap_16_mot_HHH_b2_05972_af2_000000208_0001_1_16_H_._HHH_b1_01803_0001_0000100002_0000001_0_0001_af2pred_0001 (protein)
chain: SSSSEQELMRFAARVVLELYEKLGLSREDFEELLELALRLVQEGFSEEEIREILEEVAKELSSSS
B11: il10ra_site1_normal_mot_HHH_b1_06363_000000103_0001_21_38_H_._HHH_b2_01051_0001_0000100003_0000002_0_af2pred_0001 (protein)
chain: SSSSSDEHRERVEELLEEAKEIDDDKERWQVLIEAYLIAYRNNDEELREEVREVAVRLVDSSSSS
B12: il10ra_site1_normal_mot_HHH_b2_07144_000000289_0001_1_18_H_._HHH_b2_05014_0001_0000100007_0000001_0 (protein)
chain: SSSSDAQELYELSREAAELRRNGNPEEAQKVVEEAEELARELNNFAILFAIRHLRRDIEKSSSSS
B13: il10ra_site1_sap_16_mot_HHH_b1_06788_af2_000000238_0001_19_36_H_._HHH_b1_08627_af2_0001_0000300018_0000001_0_0001 (protein)
chain: SSSSNEELEEIMELLRRAVELDHDGNPEEARKLLEEAEELAEEANNLLLRWQIEWVLKMLNSSSS
B14: il10ra_site1_normal_mot_HHH_b2_02933_000000199_0001_1_19_H_._HHH_b1_08288_0001_0000100004_0000002_0 (protein)
chain: SSSSSEEIWELLRRLIEAIREGDEELARELIEEIRRLIEEAGNDNFRFQLEFAEEVAERELSSSS
B15: il10ra_site1_sap_19_mot_HHH_b1_01011_000000096_0001_1_19_H_._HHH_b1_07527_0001_0000100007_0000002_0_0001_af2pred_0001 (protein)
chain: SSSSSVEEEVRELFEEAQEVLEEGDLKRAIELSRRLLELAAEHNDEEAAKLARELVKLLGSSSSS
B16: il10ra_site1_normal_mot_ems_p1-16H-GBL-16H-GABBL-16H_0429_0001_0001_0001_000000085_0001_1_17_H_._HHH_b1_02122_0001_0000200028_0000001_0 (protein)
chain: SSSSSDAEEIFELIRRILELIDDGDEEEARELLEELRELIEKAGNFVFEFSLRVLERELNSSSSS
B17: il10ra_site1_normal_mot_HHH_b1_02397_af2_000000085_0001_39_57_H_._HHH_b2_06026_0001_0000400018_0000001_0 (protein)
chain: SSSDEEEKEVEELAEEARRLAEEGNPEEAARLLQEALRFAFRLRNAELLQLLWRVAKELAKSSSS
B18: il10ra_site1_normal_mot_d2735b3c0fe9b97dc03c9ec5d23a03fd_0001_1_af2_000000071_0001_17_32_H_._HHH_b1_04565_af2_0001_0000200013_0000002_0_af2pred_dldesign_0_af2pr … (protein)
chain: SSSSSSNERQRIRAILYYARLSSNPDAAKKALEYAIELAKKINDEELLAEAQAELEKLKSSSSSS
B19: il10ra_site1_sap_17_mot_e1dd4851c59bc1cdde016f988f6856bd_0001_1_000000200_0001_16_31_H_._HHH_b1_00930_af2_0001_0000800027_0000001_0_0001 (protein)
chain: SQLIERSLKWALERGDEEVAKAAVEALLRQQGVPPEEIEKILEEFEELLKKDPEEAVRFVVELLE
B20: il10ra_site1_sap_22_mot_HHH_b1_03900_000000129_0001_1_16_H_._HHH_b1_07741_0001_0000100003_0000002_0_0001_af2pred_dldesign_0_af2pred (protein)
chain: SSSSSDLEALYARALELLDAGRIDEALELLRELSRIALEKKDPEAIKLALELAKRLDEKASSSSS
B21: il10ra_site1_normal_mot_8756ee2cf497b5429c717dfc0c0bcfd6_0001_000000186_0001_1_13_H_._HHH_b1_07326_af2_0001_0000300022_0000001_1_af2pred_0001 (protein)
chain: SSSSSSDLVELLRRIIKLLADGNPEEAEELVEEAKELAKELNDEVARAILEFLEKQINSSSSSSS
B22: il10ra_site1_sap_29_mot_HHH_b1_00356_000000295_0001_1_15_H_._HHH_b1_07975_0001_0000600040_0000001_0_0001 (protein)
chain: DIEEVLEEAARKRDPELAKEALRLIEEEAGDPREVIKILAELVREAFRNNDKALLHALWHVVHLL
B23: il10ra_site1_normal_mot_HHH_b2_08186_000000021_0001_43_56_H_._HHH_b2_03507_af2_0001_0000100001_0000001_1 (protein)
chain: SSSSDEEEEELRELIEELEELLKRGDREEVSRLAQRALRLAFRLRDPEALQRIWKILRKVSSSSS
B24: il10ra_site1_normal_mot_HHH_b1_02397_af2_000000085_0001_39_57_H_._HHH_b2_06748_af2_0001_0000100005_0000002_0 (protein)
chain: SSSSDEEELSREVQEELERLAEEGDREEFARLLQEALRLAFRLSDPELLRALWELAKRAASSSSS
B25: il10ra_site1_normal_mot_HHH_b1_06816_000000239_0001_1_19_H_._HHH_b2_02034_0001_0000800035_0000001_0_af2pred_0001 (protein)
chain: SSSSSSDLEEEAEELLEQVEKIDNPEERTRVARKALELAIEAGDPELAREIARAAAKLSSSSSSS
B26: il10ra_site1_sap_15_mot_HHH_b1_08279_000000069_0001_43_57_H_._HHH_b2_03796_0001_0000300034_0000002_0_0001 (protein)
chain: SSSSSDEEYEERVEELLEEAKQIPDPRERNEVLLEAVQLAIQGQDPELLREVWRVLEELNSSSSS
B27: il10ra_site1_sap_18_mot_HHH_b1_00103_000000293_0001_1_15_H_._HHH_b2_02954_0001_0000200007_0000002_0_0001_af2pred_0001 (protein)
chain: SSSSSELEERALKLFLRIAELLRNGDPEEAEKLLEELREVVEEIGDPRLELALRALELAASSSSS
B28: il10ra_site1_sap_28_mot_HHH_b1_05185_000000011_0001_22_39_H_._HHH_b1_05552_af2_0001_0000400023_0000001_0_0001_af2pred_0001 (protein)
chain: SSSSDEFEELEEEAEELVKRGDEEELAEVIALLLKLANRLNDKEAAHRVLRLAIELARLLSSSSS
B29: il10ra_site1_sap_32_mot_HHH_b2_03434_000000017_0001_1_19_H_._HHH_b1_05522_af2_0001_0000100003_0000001_0_0001_af2pred_0001 (protein)
chain: SSSSSDTEREAAHVFLRAAEALQEGDEEEAKELLRQLEEIAEEGNSELAKRSVRFLRAMLSSSSS
B30: il10ra_site1_normal_mot_HHH_b2_00622_af2_000000153_0001_40_57_H_._HHH_b1_02970_af2_0001_0000300024_0000001_0_af2pred_0001 (protein)
chain: SSSSDRDEKLLRRQIRAAERALELGNPERAKLALRFALFNARATGDPLAEEIEELIEEIGSSSSS
B31: il10ra_site1_normal_mot_HHH_b2_00441_000000147_0001_1_18_H_._HHH_b2_02085_0001_0000200018_0000001_0 (protein)
chain: SSSSDESIRRAIRILLEVAKRIEDEEYVKLSLRFAEALAKANNDDELERLVEEVEQEIEESSSSS
B32: il10ra_site1_sap_15_mot_d910f416147260c93593610934442136_0001_000000186_0001_34_49_H_._HHH_b2_05165_af2_0001_0000400004_0000002_0_0001 (protein)
chain: SSSSEAEEVYKAIRRVLELREEGNEEEAEELLEKLIEKLEELGNRTLVVNARFLLKVLRRLSSSS
B33: il10ra_site1_sap_13_mot_HHH_b1_05084_000000041_0001_41_57_H_._HHH_b2_00953_0001_0000200008_0000001_0_0001 (protein)
chain: SSSSSSQELYELIRKAIELMAEGNPEEAKEVVEEAERIAEEENNRVLLWLLEWLLKRLSSSSSSS
B34: il10ra_site1_normal_mot_HHH_b2_03220_af2_000000223_0001_23_40_H_._HHH_b1_07482_0001_0000500046_0000001_0 (protein)
chain: SSSSSEEAEEVWELLRRALEIREKDPEEARELVERAEEIAEENNNLNALFAIRFLLRDINSSSSS
B35: il10ra_site1_normal_mot_HHH_b1_06914_000000280_0001_1_18_H_._HHH_b2_02171_0001_0000100008_0000001_0 (protein)
chain: SSSSTELAEEVYKASREALELLSEGNPEEAEKLLEEILREAEELGNEFLALILRAVLEALKSSSS
B36: il10ra_site1_sap_21_mot_HHH_b1_07369_af2_000000079_0001_1_18_H_._c1e259e16b19a3635eeea4582300f2e1_0001_0001_0000200011_0000001_0_0001 (protein)
chain: SSSSDVEELLEEAREATEEGDEEAVSELSLKAVHHAIQRQDPELLREVWRVNKELGERLKSSSSS
B37: il10ra_site1_normal_mot_HHH_b1_07380_000000129_0001_1_20_H_._HHH_b1_05236_0001_0000100001_0000002_0 (protein)
chain: SSSSSEEVYRLSREAAELLAEGNPEEAEKVLEEARQLAEEEGNRVLLFNVRHLLRDIEEERSSSS

target: il10ra, Q13651; assay: yeast display titration

Apparent Kd, inactive:
B1 no binding seen, B2 no binding seen, B3 no binding seen, B4 no binding seen, B5 no binding seen, B6 no binding seen, B7 no binding seen, B8 no binding seen, B9 no binding seen, B10 no binding seen, B11 no binding seen, B12 > 291 nM, B13 no binding seen, B14 no binding seen, B15 no binding seen, B16 no binding seen, B17 no binding seen, B18 no binding seen, B19 no binding seen, B20 no binding seen, B21 no binding seen, B22 no binding seen, B23 no binding seen, B24 no binding seen, B25 no binding seen, B26 no binding seen, B27 no binding seen, B28 > 1500 nM, B29 no binding seen, B30 no binding seen, B31 no binding seen, B32 no binding seen, B33 no binding seen, B34 no binding seen, B35 no binding seen, B36 no binding seen, B37 no binding seen
